Source: publication PMC6593612

Biological target: T1, Flag-tagged D182A 48 kDa PTPN2 substrate-trapping mutant (human) (UniProt P17706)
T1 sequence: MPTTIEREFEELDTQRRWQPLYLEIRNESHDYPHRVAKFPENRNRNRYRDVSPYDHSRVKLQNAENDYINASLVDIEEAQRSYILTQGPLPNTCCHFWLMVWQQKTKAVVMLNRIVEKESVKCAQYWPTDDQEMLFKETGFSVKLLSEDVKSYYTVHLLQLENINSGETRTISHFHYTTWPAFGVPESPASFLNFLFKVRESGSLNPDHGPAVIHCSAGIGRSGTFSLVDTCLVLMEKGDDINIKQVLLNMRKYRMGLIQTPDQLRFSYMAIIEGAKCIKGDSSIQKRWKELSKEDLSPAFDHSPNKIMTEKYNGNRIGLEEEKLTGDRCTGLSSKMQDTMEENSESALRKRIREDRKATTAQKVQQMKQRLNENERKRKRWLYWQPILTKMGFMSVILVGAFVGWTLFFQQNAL
Assay: co-IP; Flag-tagged D182A PTPN2 precipitated with anti-FLAG antibodies coupled to agarose beads from whole cell lysates of transfected HEK-PAFR; cells stimulated with PAF (100 nM) or vehicle for indicated times; blots with anti-Akt, anti-PKD, anti-Flag

Row | binding | Substance
1 | binds | protein kinase D (human (endogenous in HEK-293))
2 | binds | Akt (human (endogenous in HEK-293))

Results are given in words; binding and its absence hold for the method and conditions named. In cells and extracts the contact can be indirect. Binding calls can cover weak binding; strength is not graded here. Sequences can lack the tags named with a protein.
